The exact form of at least one protein or probe is not confirmed. For some assays here: Weaker means in comparison with the reference protein, sequence or condition of that experiment. Protein sequences can lack the tags named with them.
Tests used:
[1] = target: T1, dCREB2-b (Drosophila melanogaster) (UniProt Q9VWW0); assay: EMSA; conditions: purified recombinant protein, label: 32P 5' end
T1 sequence (limits assumed): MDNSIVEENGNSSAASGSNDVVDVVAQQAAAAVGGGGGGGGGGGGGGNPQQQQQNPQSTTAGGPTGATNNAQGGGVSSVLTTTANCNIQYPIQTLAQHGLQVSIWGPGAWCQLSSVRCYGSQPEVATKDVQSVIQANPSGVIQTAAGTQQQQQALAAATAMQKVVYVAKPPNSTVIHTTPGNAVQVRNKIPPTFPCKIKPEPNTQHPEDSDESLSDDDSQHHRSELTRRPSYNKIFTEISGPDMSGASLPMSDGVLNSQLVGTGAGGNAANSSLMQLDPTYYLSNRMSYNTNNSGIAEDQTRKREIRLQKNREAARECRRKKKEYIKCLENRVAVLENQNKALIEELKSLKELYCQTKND

[2] = target: T1, dCREB2-b (Drosophila melanogaster); assay: competition with a labelled probe; conditions: nonspecific competitor versus 3xCRE probe; purified recombinant protein
[3] = target: T1, dCREB2-b (Drosophila melanogaster); assay: binding assay; conditions: DNA-binding screen of phage expression library on filters (phage-expressed protein); purified recombinant protein; label: 32P Klenow fill-in

AAATGAATTAACGGAAATGAATTAACGGAAATGAATTAACGG (double strand) [3xmCRE]
binding result ([1]; lower but detectable affinity than 3xCRE, variant of 3xCRE): binds more weakly

CTCTAGAGCGTACGCAAGCGTACGCAAGCGTACG (double strand) [Nonspecific competitor #4]
binding result [2]: binds more weakly

CTAGAGCTTGCAAGCATGCTTGCAAGCAAGCATGCTTGCAAGCATGCTTGCAAGC (double strand) [Nonspecific competitor #3]
binding result [2]: binds more weakly

CGTCTAGATCTATGACTGAATATGACGTAATATGACGTAATGGTACCAGATCTGGCC (double strand) [3xCRE cloning/screening probe]
binding result [3]: binds

AAATGACGTAACGGAAATGACGTAACGGAAATGACGTAACG (double strand) [3xCRE]
binding result ([1]; gel with 3 mM MgCl2, Tris-glycine): binds

Source: patent US5929223
